Assay results published in PMC4962994.
These are yes or no findings as the source states them, for the method shown. Binding seen in cells or lysates may run through a third protein.

Molecular target: T1, VN::VdPls1 (Verticillium dahliae) (UniProt G2WVY3)
T1 sequence: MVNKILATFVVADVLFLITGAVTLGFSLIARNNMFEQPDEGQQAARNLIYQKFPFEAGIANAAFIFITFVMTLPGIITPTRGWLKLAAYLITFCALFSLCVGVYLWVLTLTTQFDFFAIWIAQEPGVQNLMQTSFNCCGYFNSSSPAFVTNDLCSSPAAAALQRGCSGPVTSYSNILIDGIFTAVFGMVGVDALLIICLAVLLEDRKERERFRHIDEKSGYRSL
Assay: split reporter; BiFC with Venus fragments in V. dahliae V592; transformants on MM medium overlaid with cellophane for 2 days to induce hyphopodia; CLSM observation

VdMsb2::VC (Verticillium dahliae)
binding: no binding
